Data on one substance can be found in article PMC8417450.

No constants are given. Whether binding was seen depends on the method and setting. In cells and extracts the contact can be indirect. Some results given as binding are weak or reduced against the parent protein; the word gives no strength.

The target of this assay is Human mature CDNF BiFC fusions (VN-CDNF and CDNF-VC) (human) (UniProt Q49AH0). Kind of assay: split reporter; Venus bimolecular fluorescence complementation in living HEK 293 cells, equimolar plasmids, 48 h after transfection, epifluorescence microscopy.

Take “Human mature CDNF BiFC fusions (VN-CDNF and CDNF-VC) (from UniProt Q49AH0 25-187)”: the binding entry is “binds”.
